In PubChem BioAssay AID504444 (National Center for Advancing Translational Sciences (NCATS), 2011):
Out of some 360,000 compounds screened, about 7,500 (2.1%) were called active. This list was built around the results that the source calls inconclusive (neither active nor inactive); the mix of calls is not that of the screen. The call rests on the fitted dose curve; in most records, active means well fitted inhibition curve with a large enough effect; inconclusive means small, poorly fitted or top-dose-only effect, or effect the other way; inactive means flat fitted curve, though single readings scatter. Where the call is inconclusive, the potency comes from a doubtful curve fit.

Test: Nrf2 qHTS screen for inhibitors; further: nearly all actives have a fitted effect of over 60% in size
Conditions: A549 ARE-Fluc reporter, luciferase luminescence, 18-24 h; activity change, negative = inhibition: at 46 µM (top of the series)
Outline: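 Two sequential reads on A549 ARE_Fluc cells exposed to compound for 18-24 h: a CellTiter-Fluor fluorescence read for viability, then a luciferase luminescence read for Nrf2/ARE activity.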
On the % scale 0 is the no-effect control and ±100 the full control effect; potency means the concentration at half of the fitted maximal effect.

Which Potency does the source give for `Cc1ccc(S(=O)(=O)c2c(N)n(CC3CCOC3)c3nc4ccccc4nc23)cc1` (centres undefined) here?
The Potency was inconclusive: 29.1 µM [falling, single point].

Which Potency does the source give for `CCOc1ccccc1CNC(=O)CSc1nnc(C)c2c(C)n(-c3ccccc3)nc12` here?
Its Potency is inconclusive: 29.1 µM [falling, single point].

Which Potency does the source give for `Cc1ccc(C(=O)Oc2cc(C)n(C)c(=O)c2)cc1` here?
Its Potency is inconclusive: 14.6 µM [falling, partial curve, poor fit].

For `Cc1ccc(OCC(=O)c2cc(C)n(C)c2C)c([N+](=O)[O-])n1`, which Potency is on record?
Its Potency is inconclusive: 4.61 µM [activator, full curve].

With `COc1cccc(S(=O)(=O)NCc2ccc(C(=O)N3CCN(Cc4ccccc4)CC3)cc2)c1` as the molecule, how does the Potency read?
The Potency was inconclusive: 20.6 µM [falling, single point].

Which Potency does the source give for `Cc1ccc(-c2csc3ncnc(Nc4ccc(N5CCOCC5)cc4)c23)cc1` here?
Its Potency is inconclusive: 20.6 µM [falling, single point].

For `Cc1ccc2onc(CNC(=O)NCc3ccccc3)c2c1`, which Potency is on record?
Its Potency is inconclusive: 20.6 µM [activator, single point].

For `CCCOc1ccc(NCC(=O)Nc2ccc(C)cc2C)cc1`, which “activity change, negative = inhibition” value is on record?
Its value is inactive: 1.45%.

With `CCC(C(=O)Nc1ccccc1OC)n1c(C(=O)OC)cc2sc(Cl)cc21` (centres undefined) as the molecule, how does the “activity change, negative = inhibition” value read?
Its value is inactive: 4.65%.

With `CCOc1ccccc1NC(=O)CCNS(=O)(=O)c1ccccc1` as the molecule, how does the “activity change, negative = inhibition” value read?
Its value is inactive: 10.3%.

Which Potency does the source give for `COC(=O)c1sc(S(=O)(=O)Nc2ccc(C)c(C)c2)c(C(=O)OC)c1C` here?
The Potency was inconclusive: 32.6 µM [falling, single point].

With `COc1ccc([C@H]2CC(=O)C=C(c3ccc(OC)cc3OC)C2)cc1` as the molecule, how does the Potency read?
The Potency was inconclusive: 23.1 µM [activator, partial curve].

Which Potency does the source give for `CCOC(=O)CNC(=O)C1(/C=C/c2ccccc2)CC(=O)N1c1ccc(OC)cc1` (centres undefined) here?
The Potency was inconclusive: 0.326 µM [falling, full curve, poor fit].

With `Cc1cccc(NC(=O)N[C@@H](C)C(=O)O)c1` as the molecule, how does the Potency read?
Its Potency is inconclusive: 13 µM [activator, single point].

Which Potency does the source give for `Cc1ccc(C(=O)NC(=S)Nc2ccc(Oc3ccc(Cl)cc3)cc2)cc1` here?
Its Potency is inconclusive: 29.1 µM [falling, single point].

For `COc1ccc(/C=C2\SC(=S)N(CCC(=O)Nc3cccc(C(=O)O)c3)C2=O)cc1`, which Potency is on record?
Its Potency is inconclusive: 29.1 µM [falling, single point].

For `O=C(NCCc1ccccc1)c1ccc(Cn2c(SCc3ccccc3)nc3cccnc32)cc1`, which Potency is on record?
The Potency was inconclusive: 29.1 µM [activator, single point].

For `Oc1cccc(/C=N\Nc2nncc(-c3ccccc3)n2)c1`, which Potency is on record?
Its Potency is inconclusive: 20.6 µM [falling, single point].

With `CCc1ccc(N/C(SCc2cccc(F)c2)=C(/C#N)C(=O)NCc2ccco2)cc1` as the molecule, how does the Potency read?
Its Potency is inconclusive: 23.1 µM [falling, single point].

For `CCn1c(SCC(=O)Nc2ccc3c(c2)c2ccccc2n3CC)nnc1-c1ccco1`, which Potency is on record?
The Potency was inconclusive: 20.6 µM [falling, single point].

For `COc1ccccc1C(CCNS(=O)(=O)c1ccc(C)cc1)c1ccco1` (centres undefined), which Potency is on record?
The Potency was inconclusive: 29.1 µM [falling, single point].

Which Potency does the source give for `Cc1cc(C(=O)COC(=O)C2=COCCO2)c(C)n1-c1ccccc1` here?
Its Potency is inconclusive: 2.59 µM [activator, partial curve].

With `C(=N\Nc1nc2ccccc2[nH]1)/c1ccc2ncccc2c1` as the molecule, how does the Potency read?
The Potency was active: 20.6 µM.

With `CC(C)(C)c1cc(S(=O)(=O)CCc2ccccn2)cc(C(C)(C)C)c1F` as the molecule, how does the Potency read?
Its Potency is inconclusive: 20.6 µM [falling, single point].

Which Potency does the source give for `On1onc2c3cc(-c4ccccc4)nc3ccc21` here?
Its Potency is inconclusive: 29.1 µM [falling, single point].

For `CCOc1cc(/C=N/Nc2cccc(C(=O)O)c2)ccc1OCC(=O)N1CCCCC1`, which Potency is on record?
The Potency was inconclusive: 9.2 µM [activator, partial curve, poor fit].

For `CNC(=O)c1cnc2sc(N3CCCCCC3)nn2c1=O`, which Potency is on record?
Its Potency is inconclusive: 20.6 µM [falling, single point].

For `Cc1nc(NC(=O)C2CCCC2)sc1Cc1ccc2c(c1)OCO2`, which Potency is on record?
The Potency was inconclusive: 20.6 µM [activator, partial curve].

Which Potency does the source give for `CN1C(=O)/C(=C/c2cc3c(cc2Br)OCO3)NC1=S` here?
Its Potency is inconclusive: 6.51 µM [activator, single point].

With `O=C1CCCc2c1nc(-c1ccccc1F)n2O` as the molecule, how does the Potency read?
The Potency was inconclusive: 32.6 µM [activator, single point].

With `CC(C)C(NC(=O)CN1C(=O)c2cccc3cccc1c23)C(C)C` as the molecule, how does the “activity change, negative = inhibition” value read?
The value was inactive: -9.59%.

For `CCC(=O)Nc1nnc(-c2cccs2)s1`, which Potency is on record?
Its Potency is inconclusive: 9.2 µM [activator, partial curve, poor fit].

For `Cc1cccnc1NC(=O)COc1ccc2c(c1)CCC2`, which Potency is on record?
The Potency was inconclusive: 18.4 µM [activator, partial curve].

With `O=C1Nc2ccc(Br)cc2/C1=C/C1CC=CCC1` (centres undefined) as the molecule, how does the Potency read?
Its Potency is inconclusive: 18.4 µM [falling, single point].

For `CCc1cc2c(-c3ccccc3)cc(=O)oc2cc1OC(C)C(=O)NCC1CCC(C(=O)O)CC1` (centres undefined), which Potency is on record?
The Potency was inconclusive: 18.4 µM [falling, single point].

With `CN(Cc1nc(-c2ccc(Cl)cc2)no1)C(=O)CCN1C(=O)[C@H]2CC=CC[C@H]2C1=O` as the molecule, how does the Potency read?
Its Potency is inconclusive: 20.6 µM [falling, single point].

Which Potency does the source give for `COC(=O)c1ccc(NC(=O)c2ccc3nsnc3c2)cc1` here?
Its Potency is inconclusive: 14.6 µM [falling, partial curve, poor fit].

Which “activity change, negative = inhibition” value does the source give for `O=C(NCC(=O)N1CCN(S(=O)(=O)/C=C/c2ccccc2)CC1)c1ccc(Cl)cc1` here?
Its value is inactive: -5.46%.

With `CC(=O)N1CCc2cc(S(=O)(=O)NC3CCCc4ccccc43)ccc21` (centres undefined) as the molecule, how does the Potency read?
Its Potency is active: 6.31 µM.

Which Potency does the source give for `O=[N+]([O-])c1cc(S(=O)(=O)Nc2ccccc2)ccc1Nc1ccccc1` here?
Its Potency is active: 25.9 µM.

Which Potency does the source give for `CC(C)(C)NC(=O)CSc1ncnc2c1cnn2-c1ccccc1` here?
Its Potency is inconclusive: 29.1 µM [falling, single point].

With `CSc1ccccc1OCc1cc(C(=O)N2CCSCC2)no1` as the molecule, how does the Potency read?
Its Potency is inconclusive: 18.4 µM [activator, partial curve].

Which Potency does the source give for `CCOC(=O)N1CCN(C(=O)c2ccc(N(Cc3ccccc3Cl)S(C)(=O)=O)cc2)CC1` here?
The Potency was inconclusive: 14.6 µM [falling, partial curve, poor fit].

For `CCOc1ccc(-c2nc3n(c(=O)c2C#N)CCCS3)cc1`, which Potency is on record?
The Potency was inconclusive: 29.1 µM [activator, single point].

Which Potency does the source give for `CCOC(=O)c1sc(=S)n(C)c1NC(=O)c1ccc(C(C)(C)C)cc1` here?
Its Potency is inconclusive: 23.1 µM [falling, single point].

With `Clc1ccc(NCc2nc3ccccc3n2CCOc2ccccc2)cc1` as the molecule, how does the activity change, negative = inhibition read?
Its activity change, negative = inhibition is inactive: 22.7% [at 9.27 µM].

With `COc1ccc(Cl)cc1NC(=O)Cn1c(=O)c2ccccc2n2nncc12` as the molecule, how does the “activity change, negative = inhibition” value read?
Its value is inactive: -1.31%.

For `CC1(C)C(=O)OC(c2cccc([N+](=O)[O-])c2)C2(CCCCC2)C1=O` (centres undefined), which Potency is on record?
Its Potency is inconclusive: 25.9 µM [falling, partial curve, poor fit].

Which Potency does the source give for `O=c1cc(Cl)[nH]c(=O)n1CCNc1ncc(C(F)(F)F)cc1Cl` here?
The Potency was inconclusive: 4.11 µM [activator, full curve, poor fit].

With `CCC(C(=O)Nc1ccc(C)c(Cl)c1)n1c(=O)c(-c2ccccc2NC(C)=O)nc2ccccc21` (centres undefined) as the molecule, how does the “activity change, negative = inhibition” value read?
Its value is inactive: 19.2%.

For `O=C1Cc2ccccc2C(c2ccc(Br)cc2)N1` (centres undefined), which Potency is on record?
The Potency was inconclusive: 18.4 µM [falling, partial curve, poor fit].

With `Cc1cccc(-n2ncc3c2CCCC3NC(=O)CCN2CCCO2)c1C` (centres undefined) as the molecule, how does the Potency read?
Its Potency is inconclusive: 25.9 µM [falling, single point].

With `COc1ccc(-n2nnnc2SCc2nc(N)nc(N3CCOCC3)n2)cc1` as the molecule, how does the Potency read?
The Potency was inconclusive: 9.2 µM [falling, partial curve, poor fit].

With `CC(=O)N1CCc2cc(S(=O)(=O)N3CCc4ccccc4C3)ccc21` as the molecule, how does the Potency read?
Its Potency is inconclusive: 14.6 µM [falling, partial curve, poor fit].

With `C/C(=N\OCC(=O)N/N=C/c1ccc(C)cc1O)c1cccs1` as the molecule, how does the Potency read?
The Potency was inconclusive: 23.1 µM [falling, partial curve, poor fit].

With `Cc1ccc(Cn2ccc(=O)c(OCc3c(Cl)cccc3Cl)c2C)cc1` as the molecule, how does the Potency read?
The Potency was inconclusive: 29.1 µM [falling, single point].

With `O=C(NCCn1cc(SCc2ccc(F)cc2)c2ccccc21)c1cccs1` as the molecule, how does the Potency read?
Its Potency is inconclusive: 25.9 µM [falling, single point].

For `CC(C)=CCC/C(C)=C/CNC(=O)CC1C[C@H](C(=O)N2CCOCC2)[C@@]2(C)c3[nH]c4ccccc4c3CCN2C1=O` (some centres undefined), which Potency is on record?
The Potency was inconclusive: 29.1 µM [falling, single point].

For `Cc1ccccc1-n1ncc2c1CC(C)(C)CC2NC(=O)C1=CC(=O)CC(C)(C)O1` (centres undefined), which Potency is on record?
The Potency was inconclusive: 23.1 µM [falling, partial curve, poor fit].

With `COc1ccc(NC(=O)C2CCC(CNS(=O)(=O)c3ccc(Br)s3)CC2)c(OC)c1` (centres undefined) as the molecule, how does the Potency read?
The Potency was inconclusive: 29.1 µM [falling, single point].

With `CC(C)CC(C(=O)NCC1CCN(Cc2ccc(F)cc2)CC1)N1Cc2ccccc2C1=O` (centres undefined) as the molecule, how does the Potency read?
The Potency was inconclusive: 23.1 µM [activator, single point].

With `O=c1[nH]c2ccccc2n1CCCN1CCCCC1` as the molecule, how does the Potency read?
The Potency was inconclusive: 16.4 µM [activator, partial curve].

Which Potency does the source give for `Nc1c(S(=O)(=O)c2cccs2)c2nc3ccccc3nc2n1Cc1ccc2c(c1)OCO2` here?
Its Potency is inconclusive: 25.9 µM [falling, single point].

Which Potency does the source give for `CC(=O)Nc1ccc(-c2csc(NNC(=O)c3ccc(C)cc3)n2)cc1` here?
The Potency was inconclusive: 4.11 µM [falling, full curve, poor fit].
